± gives the standard deviation. The entries are a selection whose mix differs from that of the whole data set. Many of these values have a large error.
Tested on: MILI (PIWIL2) piRISC loaded with L1MC piRNA (26 nt)
Assay: pre-steady-state target cleavage rate (min^-1); MIWI and MILI are mouse PIWI proteins and EfPiwi is from a freshwater sponge; tags in brackets are library labels; higher = faster piRNA-guided slicing of the target
Conditions: guide: L1MC piRNA 5'p-UAACUAAAUACUAUGCAAGCUGUAGG; auxiliary factor: 500 nM mouse GTSF1
How it was run: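 Cleave-'n-Seq reactions paired 0.1 nM transcribed, DNA-blocked target RNA library with 1 nM active affinity-purified piRISC holding one synthetic guide, plus or minus 500 nM GTSF1 partner protein, in HEPES–potassium acetate buffer at 33 °C for 0–8 or 0–960 min. After sequencing of uncleaved targets and normalisation to depth and weakly complementary targets, the pre-steady-state cleavage rate was taken from a burst-and-steady-state fit. Three trials were pooled, and k3 was capped at 0.0001 min^-1.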

Sequence | pre-steady-state target cleavage rate
UCCUCCUACAGCUUCCAAAGUAUUUAGUUA | 0.13 ± 0.019
UCCUGGAUCAGCUUGCUAUGUAUUUUCAAA | 0.00137 ± 0.0079
UCCUGGAUGUCGAACCAUUAGUAUUUAGUUA | 0.000225 ± 0.011
UCCUGGAUGUCCUUGGAUAGUAUUUAGAUA | 0.129 ± 0.035
UCCUGGAUGUCGAUGCAUAGGAUUUAGUUA | 0.00183 ± 0.0049
UCCUGCUAGAGCUUGCAUAGUAUUUACAAA | 0.146 ± 0.039
UCCUGCUACUCGUUGCAUAGUAUUUUCAAA | 0.0428 ± 0.014
UCCUGGAACAGCUUGCUAUAGUAUUUAGUUA | 0.028 ± 0.0077
UCCUGGAUGUCCAACCAUAGUAUUUAGUUA | 0.00412 ± 0.004
UCCUGGAUGUCCAUGCAUAGUAUUAAGUUA | 0.0665 ± 0.018
UCCUGGAUGUCGUUGCAUUGUAAUUAGUUA | 0.000237 ± 0.05
UCCUGGAUCAGCUUGCUAAGUAUUUACAAA | 0.0261 ± 0.0085
UCCUGGAUGAGCUUGCAUAGUUAUUAGUAA | 0.00294 ± 0.0051
UCCUGCUACAGCUUGCAUUCUAUUUUCAAA | 0.0184 ± 0.0078
UCCUGGAACAGCUUGCAUCAGUAUUUAGUUA | 0.0151 ± 0.0061
UCCUGGAUGUCCAUGCAUAGAAUUUAGUUA | 0.0111 ± 0.0048
UCCUGGAUGAGCUUCCAUUGUAUUUAGUUA | 0.0518 ± 0.016
UCCUGGAUGUCGAACCAUAGUAUUUCAGUUA | 0.000515 ± 0.0098
UCCUGGAUGUCCUUGCAUACGUAUUUAGUUA | 0.00229 ± 0.0058
UCCUCCUACAGCUUGACAUAGUAUUUAGUUA | 0.267 ± 0.018

Sequence | pre-steady-state target cleavage rate
UCCUGGAUCAGCUUGCAUUCAAUUUAGUUA | 0.00304 ± 0.0051
UCCUGCUACAGCUUGCAUAGAUUUUACAAA | 0.00852 ± 0.0044
UCCUGGAUGUGCUUGCAUUAGUAUUUAGUUA | 0.00201 ± 0.0074
UCCUGCUACAGCAACCAUAGUAUUUAGUUA | 0.305 ± 0.04
UCCUGGAUGUCGAUGGAUAGUUUUUAGUUA | 0.000479 ± 0.015
UCCUCCUACAGCUUGCAUAGUAAAAAGUAA | 0.0657 ± 0.019
UCCUGGAUGUCGUUGCAUAGUAUCUAGUUA | 0.11 ± 0.019
UCCUGGAUGUGCUUGCAUUGUAAUUAGUUA | 0.0229 ± 0.0072
UCCUGGAUGUCGAUGCUUAGUAUUUAGAUA | 0.000865 ± 0.012
UCCUGGAUGUGGUUCCAUAGUAUUUAGUUA | 0.00523 ± 0.0059
UCCUGGAUGUCGAUGCAUGUAUUUAGUUA | 0.00101 ± 0.0084
UCCUGCUACAGCAACCAUAGUAUUUAGUAA | 0.35 ± 0.063
UCCUGGAACAGCUUGCAUAGUAAAUAGAAA | 0.0493 ± 0.016
UCCUGGAUGUCGAUGCUUAGUAUUUAGUAA | 0.0164 ± 0.0045
UCCUGGAUGUGGUUGCAAAGUAUUUAGUUA | 0.0262 ± 0.0077
UCCUGGAACAGCUUCGAUAGUAUUUAGAAA | 0.0923 ± 0.021
UCCUGGAUGUCGUUGCAUUGUAUUUAGUAA | 0.00216 ± 0.0053
UCCUGGAUGAGCUUCGUUAGUAUUUAGUAA | 0.000575 ± 0.013
UCCUGGAUGUCGUUGCAUGAGUAUUUAGUUA | 0.000818 ± 0.0096
UCCUGGAACAGCUUGCAUAGUAAAAAGUUA | 0.0663 ± 0.018

3 entries drawn at random from those above, as already listed:
Sequence | pre-steady-state target cleavage rate
UCCUGCUAGAGCUUGCAUAGUAUUUACAAA | 0.146 ± 0.039
UCCUGCUACUCGUUGCAUAGUAUUUUCAAA | 0.0428 ± 0.014
UCCUCCUACAGCUUGACAUAGUAUUUAGUUA | 0.267 ± 0.018

Source: the supplement of paper PMC10338343
